{"sequences": {"note": "Sequences of proteins named here, by UniProt entry; tags and fusion partners are left off. A change or cut given only in a name is not applied to a line headed by its entry. A line that says so, or that is headed by a name, gives the form on record, which may keep a tag or linker.", "VEGFA-165 (R&D systems 293-VE/CF) (P15692-4, form named)": "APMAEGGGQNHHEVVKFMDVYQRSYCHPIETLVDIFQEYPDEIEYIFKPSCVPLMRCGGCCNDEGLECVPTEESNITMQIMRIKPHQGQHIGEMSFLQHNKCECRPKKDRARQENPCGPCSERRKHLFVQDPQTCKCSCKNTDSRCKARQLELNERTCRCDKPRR"}, "source": "patent US20240252686A1", "about": "(SKYLINE THERAPEUTICS, published 2024)", "target": "T1, VEGFA-165 (R&D systems 293-VE/CF) (human, UniProt P15692-4 27-191)", "T1 construct": "Coated on ELISA plates or added in solution to reporter cells; also called human VEGF; human VEGFA", "assay": "ELISA, VEGFA-165 coated, supernatant, anti-HA detection", "experimental": "After removing the blocker, the primary antibody (rabbit anti-HA, Thermo, PA1-985) was diluted (1:5000) with the blocking buffer (StartingBlock™ T20 (TBS) Blocking Buffer, Catalog number: 37543 of Thermo Fisher Scientific), and added to ELISA plate (50 μl/well), followed by the incubation at RT for 1h with 250 rpm gentle shaking. After washing with 1×TBST buffer for 3 times, the secondary antibody (Goat anti-rabbit-HRP, Invitrogen, 3146) was diluted (1:5000) with the blocking buffer, and added to the ELISA plate (50 μl/well), followed by the incubation at RT for 1h with gentle shaking. After washing the ELISA plate with 1×TBST for 3 times, the TMB substrate (Thermo Scientific, REF34028) was added the plate (50 μl/well); after the incubation at RT for 5-10 min, 2M H₂SO₄ was added to stop the TMB reaction. OD450 and OD525 of the ELISA plate were detected.", "note": "Results are given in words; binding and its absence hold for the method and conditions named. Some binding calls cover weakened binding; strength is not graded here. Sequences can lack the tags named with a protein."}
{"binder": "bi-valent Nb24, product expressed by pGCB108-ITR130-AMDF1Nb24-5-(G4S)4-Nb24-5-HA (VHH, Two copies of Nb24 in a single polypeptide; supernatant of transfected Expi293 cells; also called 24-5-G4S4-24-5) EVQLQESGGGLVQPGGSLRLSCTASGFTFDDPDVGWFRQAPGNECELVSTISKDGSTYYTDSVKGRFTISRDYAKNTVYLQMNSLRAEDTAVYYCAADSNPIAPIRTCLGWYNYWGQGTLVTVSSGGGGSGGGGSGGGGSGGGGSEVQLQESGGGLVQPGGSLRLSCTASGFTFDDPDVGWFRQAPGNECELVSTISKDGSTYYTDSVKGRFTISRDYAKNTVYLQMNSLRAEDTAVYYCAADSNPIAPIRTCLGWYNYWGQGTLVTVSSYPYDVPDYA", "values": [{"measurement": "binding", "result": "binds"}]}
